This assay addresses MAGOH-C-LgBiT (human) (UniProt P61326). The assay can be described thus: split reporter; NanoBiT; both fusions transiently co-transfected in HEK 293 cells; luciferase activity (RLU) with furimazine in lysates.

Amino acid sequences for entries named in this document (tags omitted).
UniProt P61326: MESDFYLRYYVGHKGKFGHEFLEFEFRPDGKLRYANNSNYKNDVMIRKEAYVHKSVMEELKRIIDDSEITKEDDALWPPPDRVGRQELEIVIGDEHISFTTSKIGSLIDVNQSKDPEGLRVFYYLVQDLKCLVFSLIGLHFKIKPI

These are yes or no findings as the source states them, for the method shown. In cells and extracts the contact can be indirect.

With “SmBiT-N-MAGOH (from UniProt P61326 1-146) (other; other documents disagree on this pair)”, the binding entry is listed as “no binding”.

(Values after article PMC11101648.)
